Laboratory results as given in patent US20060035329A1 (CARNEGIE INSTITUTION OF WASHINGTON, published 2006).
No constants are given. Whether binding was seen depends on the method and setting. Some binding calls cover weakened binding; strength is not graded here. For some assays here: Tags and fused reporters may be left off the sequences shown.

By UniProt entry, the sequences of proteins in these tests, tags left out. Residues count along the entry.
UniProt P10827, residues 14-490: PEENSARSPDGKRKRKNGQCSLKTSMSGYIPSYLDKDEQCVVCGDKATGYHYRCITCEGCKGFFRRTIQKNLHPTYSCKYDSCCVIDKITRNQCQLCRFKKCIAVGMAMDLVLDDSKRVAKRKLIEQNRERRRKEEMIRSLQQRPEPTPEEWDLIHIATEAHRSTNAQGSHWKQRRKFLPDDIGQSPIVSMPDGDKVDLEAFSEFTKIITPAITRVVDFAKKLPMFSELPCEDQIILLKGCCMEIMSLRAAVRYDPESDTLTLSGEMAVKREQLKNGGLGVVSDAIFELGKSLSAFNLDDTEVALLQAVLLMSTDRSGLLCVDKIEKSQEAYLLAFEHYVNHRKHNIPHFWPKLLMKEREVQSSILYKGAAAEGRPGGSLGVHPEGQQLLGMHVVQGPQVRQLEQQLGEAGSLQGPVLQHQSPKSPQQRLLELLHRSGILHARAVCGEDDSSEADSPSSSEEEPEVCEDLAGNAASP

T1: hr fusion protein (hr amino acids 575-1215 fused to either GST or TrpE; which one is not said) (rat) (UniProt P97609)
T1 sequence: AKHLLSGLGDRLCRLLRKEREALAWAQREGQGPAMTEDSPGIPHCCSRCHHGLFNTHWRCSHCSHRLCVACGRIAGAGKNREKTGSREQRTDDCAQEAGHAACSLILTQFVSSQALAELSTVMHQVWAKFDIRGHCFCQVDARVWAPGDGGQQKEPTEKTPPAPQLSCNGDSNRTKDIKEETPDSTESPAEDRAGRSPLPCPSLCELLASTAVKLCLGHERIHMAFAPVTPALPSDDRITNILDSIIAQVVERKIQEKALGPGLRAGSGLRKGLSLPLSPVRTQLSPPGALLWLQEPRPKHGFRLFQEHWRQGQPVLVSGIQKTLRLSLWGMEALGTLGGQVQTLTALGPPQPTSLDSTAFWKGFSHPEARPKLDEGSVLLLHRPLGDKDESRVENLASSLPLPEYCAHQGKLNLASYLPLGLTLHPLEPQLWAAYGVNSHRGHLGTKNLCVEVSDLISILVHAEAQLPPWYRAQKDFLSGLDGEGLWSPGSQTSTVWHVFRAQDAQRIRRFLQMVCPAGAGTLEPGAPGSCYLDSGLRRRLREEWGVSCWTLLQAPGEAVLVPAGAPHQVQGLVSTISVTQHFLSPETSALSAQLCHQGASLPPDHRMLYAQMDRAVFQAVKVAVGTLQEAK


Tests used:
[1] = target: LexA-hr (hr amino acids 575-1215 fused to the lexA DNA binding domain) (rat); assay: yeast two-hybrid screen (HIS+, lacZ+), LexA-hr bait against VP16-fused human brain cDNA library
[2] = target: T1, hr fusion protein (hr amino acids 575-1215 fused to either GST or TrpE; which one is not said) (rat); assay: far western, 35S-labeled probe

binding [2] | Molecule | binding [1]
 | clone 2H11, thyroid hormone receptor TRα2 amino acids 14-490 fused to the activation domain of VP16 (from UniProt P10827 14-490) | binds
binds | TRβ1 (35S-labeled, from pTZ18 (rTRβ1)) (receptor, rat, UniProt P18113 1-461, looked up, 35S-methionine label) MTPNSMTENRLPAWDKQKPHPDRGQDWKLVGMSEACLHRKSHVERRGALKNEQTSSHLIQATWASSIFHLDPDDVNDQSVSSAQTFQTEEKKCKGYIPSYLDKDELCVVCGDKATGYHYRCITCEGCKGFFRRTIQKSLHPSYSCKYEGKCIIDKVTRNQCQECRFKKCIYVGMATDLVLDDSKRLAKRKLIEENREKRRREELQKSIGHKPEPTDEEWELIKTVTEAHVATNAQGSHWKQKRKFLPEDIGQAPIVNAPEGGQVDLEAFSHFTKIITPAITRVVDFAKKLPMFCELPCEDQIILLKGCCMEIMSLRAAVRYDPDSETLTLNGEMAVTRGQLKNGGLGVVSDAIFDLGMSLSSFNLDDTEVALLQAVLLMSSDRPGLACVERIEKYQDSFLLAFEHYINYRKHHVTHFWPKLLMKVTDLRMIGACHASRFLHMKVECPTELFPPLFLEVFED | 
